# Data published in the supplement of paper PMC8728848.
# Some of the results follow.
# B1: BIp1-His (Cryptococcus neoformans) (protein)
# chain: MFTKIFVALFAATAVLSAPVESAEKRITHTGRATFYSPSVGIGACGWQNTDEELVVALNAPQYALNADHNCGQSVRITNEQNGNQEIAKVVDLCPGCNDGDLDMSPALFGALNNNDFDQGVFPISWNFLPRDDTSSSN
# Key:
# Experiment in all cases: glycan array binding signal (z-score within array); higher = stronger binding
# Conditions in all cases: glycan notation: IUPAC condensed, linker removed
# [1] = target: GlcNAc(b1-4)GlcNAc(b1-4)GlcNAc(b1-4)GlcNAc(b1-4)GlcNAc
# Method in brief: (§1)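 Glycan array data were curated from 3228 arrays in the Consortium for Functional Glycomics database and kept only where the protein sequence was available. Glycan names were converted to IUPAC-condensed notation, and columns mapping to the same glycan were averaged. The binding signal is a within-array Z-score, averaged across arrays of the same protein sequence at different concentrations or buffers and across linkers. Negative Z-scores can be read as non-binding.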
# [2] = target: GlcNAc(b1-4)GlcNAc(b1-4)GlcNAc(b1-4)GlcNAc(b1-4)GlcNAc(b1-4)GlcNAc
# Method in brief: as §1
# [3] = target: GlcNAc(b1-4)[GlcNAc(b1-6)]GalNAc
# Method in brief: as §1
# [4] = target: GlcNAc(b1-6)Gal(b1-4)GlcNAc
# Method in brief: as §1
# GlcNAc(b1-6)GalNAc = target: GlcNAc(b1-6)GalNAc
# Method in brief: as §1
# [5] = target: GlcNAc6S(b1-3)Gal(b1-4)GlcNAc
# Method in brief: as §1
# Kdn(a2-3)Gal(b1-3)GalNAc = target: Kdn(a2-3)Gal(b1-3)GalNAc
# Method in brief: as §1
# Kdn(a2-3)Gal(b1-3)GlcNAc = target: Kdn(a2-3)Gal(b1-3)GlcNAc
# Method in brief: as §1
# Kdn(a2-3)Gal(b1-4)Glc = target: Kdn(a2-3)Gal(b1-4)Glc
# Method in brief: as §1
# Kdn(a2-3)Gal(b1-4)GlcNAc = target: Kdn(a2-3)Gal(b1-4)GlcNAc
# Method in brief: as §1
# [6] = target: Kdn(a2-3)Gal(b1-4)[Fuc(a1-3)]GlcNAc
# Method in brief: as §1
# Kdn(a2-6)Gal(b1-4)GlcNAc = target: Kdn(a2-6)Gal(b1-4)GlcNAc
# Method in brief: as §1
# [7] = target: Man(a1-2)Man(a1-2)Man(a1-3)Man
# Method in brief: as §1
# [8] = target: Man(a1-2)Man(a1-2)Man(a1-6)[Man(a1-3)]Man
# Method in brief: as §1
# Man(a1-2)Man(a1-3)Man = target: Man(a1-2)Man(a1-3)Man
# Method in brief: as §1
# [9] = target: Man(a1-2)Man(a1-3)[Man(a1-2)Man(a1-6)]Man
# Method in brief: as §1
# [10] = target: Man(a1-2)Man(a1-3)[Man(a1-2)Man(a1-6)]Man(a1-6)[Man(a1-2)Man(a1-2)Man(a1-3)]Man
# Method in brief: as §1
# [11] = target: Man(a1-2)Man(a1-3)[Man(a1-2)Man(a1-6)]Man(a1-6)[Man(a1-2)Man(a1-2)Man(a1-3)]Man(b1-4)GlcNAc(b1-4)GlcNAc
# Method in brief: as §1
# [12] = target: Man(a1-2)Man(a1-3)[Man(a1-6)]Man(a1-6)[Man(a1-2)Man(a1-3)]Man(b1-4)GlcNAc(b1-4)GlcNAc
# Method in brief: as §1
# [13] = target: Man(a1-2)Man(a1-6)[Man(a1-3)]Man(a1-6)[Man(a1-2)Man(a1-2)Man(a1-3)]Man
# Method in brief: as §1
# [14] = target: Man(a1-2)Man(a1-6)[Man(a1-3)]Man(a1-6)[Man(a1-2)Man(a1-2)Man(a1-3)]Man(b1-4)GlcNAc(b1-4)GlcNAc
# Method in brief: as §1
# Man(a1-3)[Man(a1-6)]Man = target: Man(a1-3)[Man(a1-6)]Man
# Method in brief: as §1
# [15] = target: Man(a1-3)[Man(a1-6)]Man(a1-6)[Man(a1-2)Man(a1-3)]Man(b1-4)GlcNAc(b1-4)GlcNAc
# Method in brief: as §1
# [16] = target: Man(a1-3)[Man(a1-6)]Man(a1-6)[Man(a1-3)]Man
# Method in brief: as §1
# [17] = target: Man(a1-3)[Man(a1-6)]Man(a1-6)[Man(a1-3)]Man(b1-4)GlcNAc(b1-4)GlcNAc
# Method in brief: as §1
# [18] = target: Man(a1-3)[Man(a1-6)]Man(b1-4)GlcNAc(b1-4)GlcNAc
# Method in brief: as §1
# [19] = target: Man(a1-3)[Man(a1-6)]Man(b1-4)GlcNAc(b1-4)[Fuc(a1-6)]GlcNAc
# Method in brief: as §1
# Man(a1-6)Man = target: Man(a1-6)Man
# Method in brief: as §1
# Man(b1-4)GlcNAc = target: Man(b1-4)GlcNAc
# Method in brief: as §1
# MurNAc(b1-4)GlcNAc = target: MurNAc(b1-4)GlcNAc
# Method in brief: as §1
# Neu5Ac(a2-3)Gal = target: Neu5Ac(a2-3)Gal
# Method in brief: as §1
# [20] = target: Neu5Ac(a2-3)Gal(b1-3)GalNAc
# Method in brief: as §1
# [21] = target: Neu5Ac(a2-3)Gal(b1-3)GalNAc(b1-3)Gal(a1-4)Gal(b1-4)Glc
# Method in brief: as §1
# [22] = target: Neu5Ac(a2-3)Gal(b1-3)GalNAc(b1-4)Gal(b1-4)Glc
# Method in brief: as §1
# [23] = target: Neu5Ac(a2-3)Gal(b1-3)GalNAc(b1-4)[Neu5Ac(a2-3)]Gal(b1-4)Glc
# Method in brief: as §1
# [24] = target: Neu5Ac(a2-3)Gal(b1-3)GalNAc(b1-4)[Neu5Ac(a2-8)Neu5Ac(a2-3)]Gal(b1-4)Glc
# Method in brief: as §1
# [25] = target: Neu5Ac(a2-3)Gal(b1-3)GalNAc6S
# Method in brief: as §1
# [26] = target: Neu5Ac(a2-3)Gal(b1-3)GlcNAc
# Method in brief: as §1
# [27] = target: Neu5Ac(a2-3)Gal(b1-3)GlcNAc(b1-2)Man
# Method in brief: as §1
# [28] = target: Neu5Ac(a2-3)Gal(b1-3)GlcNAc(b1-2)Man(a1-3)[GlcNAc(b1-4)][Neu5Ac(a2-3)Gal(b1-3)GlcNAc(b1-2)Man(a1-6)]Man(b1-4)GlcNAc(b1-4)GlcNAc
# Method in brief: as §1
# [29] = target: Neu5Ac(a2-3)Gal(b1-3)GlcNAc(b1-2)Man(a1-3)[Neu5Ac(a2-3)Gal(b1-3)GlcNAc(b1-2)Man(a1-6)]Man(b1-4)GlcNAc(b1-4)GlcNAc
# Method in brief: as §1
# [30] = target: Neu5Ac(a2-3)Gal(b1-3)GlcNAc(b1-2)[Neu5Ac(a2-3)Gal(b1-3)GlcNAc(b1-4)]Man(a1-6)[Neu5Ac(a2-3)Gal(b1-3)GlcNAc(b1-2)Man(a1-3)]Man(b1-4)GlcNAc(b1-4)GlcNAc
# Method in brief: as §1
# [31] = target: Neu5Ac(a2-3)Gal(b1-3)GlcNAc(b1-3)Gal(b1-3)GlcNAc
# Method in brief: as §1
# [32] = target: Neu5Ac(a2-3)Gal(b1-3)GlcNAc(b1-3)Gal(b1-4)GlcNAc
# Method in brief: as §1
# [33] = target: Neu5Ac(a2-3)Gal(b1-3)GlcNAc(b1-3)GalNAc
# Method in brief: as §1
binder,measurement,setting,value
B1,glycan array binding signal (z-score),[1],0.117
same,glycan array binding signal (z-score),[2],-0.558
same,glycan array binding signal (z-score),[3],-0.745
same,glycan array binding signal (z-score),[4],0.155
same,glycan array binding signal (z-score),GlcNAc(b1-6)GalNAc,-0.325
same,glycan array binding signal (z-score),[5],-0.035
same,glycan array binding signal (z-score),Kdn(a2-3)Gal(b1-3)GalNAc,0.812
same,glycan array binding signal (z-score),Kdn(a2-3)Gal(b1-3)GlcNAc,0.398
same,glycan array binding signal (z-score),Kdn(a2-3)Gal(b1-4)Glc,-1.06
same,glycan array binding signal (z-score),Kdn(a2-3)Gal(b1-4)GlcNAc,-0.674
same,glycan array binding signal (z-score),[6],0.61
same,glycan array binding signal (z-score),Kdn(a2-6)Gal(b1-4)GlcNAc,0.895
same,glycan array binding signal (z-score),[7],0.477
same,glycan array binding signal (z-score),[8],0.218
same,glycan array binding signal (z-score),Man(a1-2)Man(a1-3)Man,-0.136
same,glycan array binding signal (z-score),[9],-1.59
same,glycan array binding signal (z-score),[10],0.28
same,glycan array binding signal (z-score),[11],-0.399
same,glycan array binding signal (z-score),[12],-0.353
same,glycan array binding signal (z-score),[13],-0.355
same,glycan array binding signal (z-score),[14],-0.711
same,glycan array binding signal (z-score),Man(a1-3)[Man(a1-6)]Man,0.728
same,glycan array binding signal (z-score),[15],1.31
same,glycan array binding signal (z-score),[16],-0.668
same,glycan array binding signal (z-score),[17],0.701
same,glycan array binding signal (z-score),[18],-0.137
same,glycan array binding signal (z-score),[19],-0.012
same,glycan array binding signal (z-score),Man(a1-6)Man,-0.201
same,glycan array binding signal (z-score),Man(b1-4)GlcNAc,0.2
same,glycan array binding signal (z-score),MurNAc(b1-4)GlcNAc,0.736
same,glycan array binding signal (z-score),Neu5Ac(a2-3)Gal,-1.27
same,glycan array binding signal (z-score),[20],-0.15
same,glycan array binding signal (z-score),[21],-0.301
same,glycan array binding signal (z-score),[22],-0.565
same,glycan array binding signal (z-score),[23],0.501
same,glycan array binding signal (z-score),[24],-0.685
same,glycan array binding signal (z-score),[25],-0.387
same,glycan array binding signal (z-score),[26],-0.217
same,glycan array binding signal (z-score),[27],-0.34
same,glycan array binding signal (z-score),[28],-0.489
same,glycan array binding signal (z-score),[29],-0.457
same,glycan array binding signal (z-score),[30],0.677
same,glycan array binding signal (z-score),[31],-0.456
same,glycan array binding signal (z-score),[32],0.65
same,glycan array binding signal (z-score),[33],-0.932

# Shown tab-delimited: entries from further up.
binder	measurement	setting	value
B1	glycan array binding signal (z-score)	GlcNAc(b1-6)GalNAc	-0.325
same	glycan array binding signal (z-score)	[5]	-0.035
